The source of these data is US20120321697A1, “BPB-BASED CARGO DELIVERY SYSTEM” (GWANGJU INSTITUTE OF SCIENCE AND TECHNOLOGY, priority 2009, published 2012).

Amino acid sequences for entries named in this document (tags omitted). A change or cut given only in a name is not applied to a line headed by its entry. Chains listed by the source or under a name are the forms on record and can include a tag or linker. Residues count along the entry.
UniProt Q99836: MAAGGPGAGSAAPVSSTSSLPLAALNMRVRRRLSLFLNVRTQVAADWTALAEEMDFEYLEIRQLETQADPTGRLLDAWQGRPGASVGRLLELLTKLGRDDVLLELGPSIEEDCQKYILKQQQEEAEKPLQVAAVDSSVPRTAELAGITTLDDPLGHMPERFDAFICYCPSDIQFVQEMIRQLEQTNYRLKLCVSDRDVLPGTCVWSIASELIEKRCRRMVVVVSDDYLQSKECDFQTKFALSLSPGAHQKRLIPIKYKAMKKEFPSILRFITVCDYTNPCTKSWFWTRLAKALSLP
VEGF121 (P15692, form named): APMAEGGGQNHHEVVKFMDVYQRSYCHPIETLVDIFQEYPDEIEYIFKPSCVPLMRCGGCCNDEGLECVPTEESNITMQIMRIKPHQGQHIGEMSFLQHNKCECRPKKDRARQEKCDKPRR
UniProt P02768, residues 25-609: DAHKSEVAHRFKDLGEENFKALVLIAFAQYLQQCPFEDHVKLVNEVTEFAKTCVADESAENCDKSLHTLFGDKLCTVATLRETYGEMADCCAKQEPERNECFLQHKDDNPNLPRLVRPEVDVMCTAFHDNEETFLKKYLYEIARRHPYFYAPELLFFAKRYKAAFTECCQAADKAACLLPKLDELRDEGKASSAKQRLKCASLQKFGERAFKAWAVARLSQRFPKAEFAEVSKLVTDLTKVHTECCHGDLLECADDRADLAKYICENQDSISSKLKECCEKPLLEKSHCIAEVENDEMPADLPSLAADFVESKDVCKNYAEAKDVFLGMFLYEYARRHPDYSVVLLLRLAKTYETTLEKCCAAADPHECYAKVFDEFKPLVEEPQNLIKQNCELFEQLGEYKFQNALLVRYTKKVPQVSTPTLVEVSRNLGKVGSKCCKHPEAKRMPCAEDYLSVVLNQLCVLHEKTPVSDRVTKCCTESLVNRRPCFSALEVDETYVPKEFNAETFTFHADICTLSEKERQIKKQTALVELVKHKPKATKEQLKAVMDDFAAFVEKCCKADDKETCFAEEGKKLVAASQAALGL

These are yes or no findings as the source states them, for the method shown. Some results given as binding are weak or reduced against the parent protein; the word gives no strength.

Test [1] deals with Human MyD88 (human) (UniProt Q99836). The experiment in a line: phage ELISA, clones with higher absorbance than on BSA, sequenced. Background: ELISA stands for enzyme-linked immunosorbent assay.
In test [2] the target is VEGF121 (human) (UniProt P15692). The description is as above.
The target in test [3] is Human serum albumin (human) (UniProt P02768). Described as above.
Test [4] has as its target T1, VCAM1-Trx (human) (UniProt P19320).
T1 sequence (looked up): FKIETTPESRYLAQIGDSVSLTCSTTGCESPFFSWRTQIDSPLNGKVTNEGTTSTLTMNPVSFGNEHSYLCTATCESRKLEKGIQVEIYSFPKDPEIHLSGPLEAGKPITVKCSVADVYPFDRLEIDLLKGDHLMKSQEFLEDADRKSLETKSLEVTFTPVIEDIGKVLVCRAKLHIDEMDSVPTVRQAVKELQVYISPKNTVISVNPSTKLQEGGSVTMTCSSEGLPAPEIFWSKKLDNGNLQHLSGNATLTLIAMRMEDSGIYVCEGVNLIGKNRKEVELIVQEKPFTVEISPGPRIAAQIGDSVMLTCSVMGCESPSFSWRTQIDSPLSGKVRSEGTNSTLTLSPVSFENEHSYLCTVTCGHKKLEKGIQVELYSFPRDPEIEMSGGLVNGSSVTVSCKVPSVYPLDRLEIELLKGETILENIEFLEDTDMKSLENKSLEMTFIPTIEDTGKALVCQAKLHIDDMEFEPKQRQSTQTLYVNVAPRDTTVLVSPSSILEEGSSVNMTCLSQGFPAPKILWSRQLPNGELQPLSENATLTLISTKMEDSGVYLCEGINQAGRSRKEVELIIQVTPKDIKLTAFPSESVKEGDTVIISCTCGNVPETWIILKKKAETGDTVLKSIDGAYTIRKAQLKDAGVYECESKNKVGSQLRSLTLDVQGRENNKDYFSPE
The test is described as above.

The target of test [5] is T1, VCAM1-Trx (human). In words: phage ELISA (anti-M13-HRP, absorbance at 450 nm), proteins coated at 5 µg/ml.
Test [6] concerns the target T1, VCAM1-Trx (human). The experiment in a line: phage ELISA on several coated proteins.
Test [7] has as its target Human MyD88 (human) (UniProt Q99836). In words: phage ELISA (anti-M13-HRP, absorbance at 450 nm), proteins coated at 5 µg/ml.
The target is the same in test [8]. The experiment in a line: phage ELISA on several coated proteins.

Regarding ASTINFGSWTWENGKWTWKGYTRRWN [Peptide 2 specific to MyD88 (Table 3f)], the binding entry in test [1] is “binds”.

As to YGAYPWGSWTWENGKWTWKGWRVSRD [Peptide 4 specific to VEGF (Table 3b)], the binding entry in test [2] and in test [3] was “binds” each time.

Take QARDCTGSWTWENGKWTWKGPSICPI [Peptide 1 specific to VCAM1 (Table 3c)]: the binding result in test [4], in test [5] and in test [6] was “binds” each time.

Take HSHAFYGSWTWENGKWTWKGNPGWWT [Peptide 1 specific to MyD88 (Table 3f)]: the binding result in test [1], in test [7] and in test [8] was “binds” throughout.
